Data reported in US3976771A, “Glycylglycine amide preparations and method of use antiarrhythmic” (priority 1972, dated 1976).

What was measured:
[1] = tested on: ventricular fibrillation upon exposure to chloroform vapor; assay: Protection against chloroform-induced ventricular fibrillation in mice; type: in vivo
From the text: The method used in mice was essentially the same as described by Lawson (J. Pham. Exp. Therap. 160, 22 (1968). Male mice (NMRI, 17-25 g) were used. Unanesthetized, untreated mice show cardiac ventricular fibrillation upon exposure to chloroform vapor. The ventricular fibrillation is abolished if the animals are pretreated with appropriate doses of known antiarrhythmic agents before exposure to chloroform.
For determination of antiarrhythmic effect groups of 10 mice were pretreated by the oral route with varying sublethal doses of compound 10 to 300 min. respectively before being placed individually in a beaker containing chloroform. The mouse was removed from the beaker at the time of respiratory arrest and the thorax opened. Examination of ventricular fibrillation was made by means of ECG-recordings (lead II). The effect of the compound was expressed as the number of animals in per cent which were protected from fibrillation.

mice = assay: Acute oral toxicity in mice; type: in vivo; settings: deaths during 7 days
Method: For determination of acute toxicity groups of 10 mice were treated orally with varying doses of compound observing the incidence of death, during a 7 days period. LD50 and LD 0.1 were calculated by means of a logarithmic-probit graph paper.

SMILES: CCN(CC)CC(=O)Nc1c(C)cccc1C [Lidocaine, 2-diethylamino-2', 6'-acetoxylidide, reference compound]
- Percentage animals protected from fibrillation ([1]; 45 mg/kg p.o. (one tenth of LD50), 10 min): 30 per cent
- Percentage animals protected from fibrillation ([1]; 45 mg/kg p.o. (one tenth of LD50), 60 min): 10 per cent
- Percentage animals protected from fibrillation ([1]; 150 mg/kg p.o. (LD 0.1), 10 min): 70 per cent
- Percentage animals protected from fibrillation ([1]; 150 mg/kg p.o. (LD 0.1), 60 min): 20 per cent
- Toxicity LD50 p.o. (mice): 445 mg/kg bodyweight
